Substitutions are numbered along the chain they refer to. No constants are given. Whether binding was seen depends on the method and setting. In cells and extracts the contact can be indirect. Some binding calls cover weakened binding; strength is not graded here. Tags and fused reporters may be left off the sequences shown.
B1: FLAG-Rab40b (protein, UniProt Q12829 1-278)
chain: MSALGSPVRAYDFLLKFLLVGDSDVGKGEILASLQDGAAESPYGHPAGIDYKTTTILLDGRRVKLQLWDTSGQGRFCTIFRSYSRGAQGVILVYDIANRWSFDGIDRWIKEIDEHAPGVPKILVGNRLHLAFKRQVPTEQAQAYAERLGVTFFEVSPLCNFNITESFTELARIVLLRHGMDRLWRPSKVLSLQDLCCRAVVSCTPVHLVDKLPLPIALRSHLKSFSMANGLNARMMHGGSYSLTTSSTHKRSSLRKVKLVRPPQSPPKNCTRNSCKIS

By UniProt entry, the sequences of proteins in these tests, tags left out.
UniProt Q93034: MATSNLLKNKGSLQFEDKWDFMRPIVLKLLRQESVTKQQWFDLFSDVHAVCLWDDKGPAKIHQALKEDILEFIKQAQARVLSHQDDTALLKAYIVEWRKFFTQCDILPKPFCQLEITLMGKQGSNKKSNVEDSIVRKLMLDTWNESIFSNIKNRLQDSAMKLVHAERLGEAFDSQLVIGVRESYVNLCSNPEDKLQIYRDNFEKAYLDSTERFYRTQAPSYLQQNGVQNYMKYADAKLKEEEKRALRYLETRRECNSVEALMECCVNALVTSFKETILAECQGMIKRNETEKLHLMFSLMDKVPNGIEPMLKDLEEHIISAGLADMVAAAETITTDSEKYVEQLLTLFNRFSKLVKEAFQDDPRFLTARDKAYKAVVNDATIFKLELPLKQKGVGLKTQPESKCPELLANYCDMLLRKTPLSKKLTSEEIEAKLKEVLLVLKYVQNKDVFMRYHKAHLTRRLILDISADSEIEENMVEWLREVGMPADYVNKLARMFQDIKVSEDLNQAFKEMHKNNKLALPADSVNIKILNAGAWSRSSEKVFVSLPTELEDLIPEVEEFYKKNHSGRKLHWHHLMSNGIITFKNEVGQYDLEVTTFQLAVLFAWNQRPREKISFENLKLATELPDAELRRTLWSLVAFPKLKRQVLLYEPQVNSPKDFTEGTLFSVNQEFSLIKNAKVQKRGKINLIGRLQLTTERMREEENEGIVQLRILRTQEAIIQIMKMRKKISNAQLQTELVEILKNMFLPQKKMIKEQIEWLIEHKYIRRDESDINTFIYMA
UniProt Q9UHB6: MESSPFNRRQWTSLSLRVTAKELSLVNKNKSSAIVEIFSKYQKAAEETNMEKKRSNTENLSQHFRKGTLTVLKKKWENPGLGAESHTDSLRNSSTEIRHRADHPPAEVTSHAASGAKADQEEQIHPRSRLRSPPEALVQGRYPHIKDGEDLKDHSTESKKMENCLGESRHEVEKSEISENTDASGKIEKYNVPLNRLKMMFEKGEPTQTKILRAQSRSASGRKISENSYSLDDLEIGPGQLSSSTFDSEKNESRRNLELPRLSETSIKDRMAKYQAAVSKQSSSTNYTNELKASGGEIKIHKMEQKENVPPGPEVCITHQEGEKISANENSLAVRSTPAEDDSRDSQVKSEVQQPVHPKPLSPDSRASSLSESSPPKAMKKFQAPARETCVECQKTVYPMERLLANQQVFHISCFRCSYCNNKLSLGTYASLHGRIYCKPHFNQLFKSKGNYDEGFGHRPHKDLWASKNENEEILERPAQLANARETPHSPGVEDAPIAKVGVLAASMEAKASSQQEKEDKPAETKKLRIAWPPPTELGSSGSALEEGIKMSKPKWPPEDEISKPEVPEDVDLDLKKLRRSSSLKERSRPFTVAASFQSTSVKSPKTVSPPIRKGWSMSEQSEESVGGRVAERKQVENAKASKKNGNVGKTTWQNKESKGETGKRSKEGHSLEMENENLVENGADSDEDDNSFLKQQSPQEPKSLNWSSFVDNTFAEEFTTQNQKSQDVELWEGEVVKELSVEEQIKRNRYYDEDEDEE

Key:
[1] = target: T1, GST-Rab40b (UniProt Q12829); experiment: pull-down; glutathione beads coated with GST or purified GST-Rab40b preloaded with GTPgammaS or GDPbetaS, incubated with control MDA-MB-231 lysate; WB for EPLIN; only the target purified
T1 sequence: B1 chain

[2] = target: T2, FLAG-Rab40b-4A (UniProt Q12829); experiment: co-IP; lysates of FLAG-Rab40b or FLAG-Rab40b-4A cells, with or without GTPgammaS, IgG or anti-FLAG antibody and Protein G beads, 37°C; wash 300 mM NaCl, 0.1% Triton X-100, 0.1% SDS; WB anti-EPLIN
T2 sequence: B1 chain with L212A, P213A, L214A, P215A

[3] = target: T3, FLAG-Rab40b (UniProt Q12829); experiment: as above
T3 sequence: B1 chain

[4] = target: GST-Cullin5 (UniProt Q93034); experiment: pull-down; glutathione beads coated with GST-Cullin5 or GST, incubated with MDA-MB-231 lysates expressing FLAG-Rab40b (GDP or GTPgammaS) or FLAG-Rab40b-4A; 50 mM Hepes pH 7.4, 150 mM NaCl, 0.1% Triton X-100, 25°C, 1 h; WB anti-FLAG; only the target purified

| Molecule | binding [1] | binding [2] | binding [3] | binding [4] |
| --- | --- | --- | --- | --- |
| EPLIN (epithelial protein lost in neoplasia) (from UniProt Q9UHB6 1-759) | binds | binds | binds weakly | – |
| B1 | – | – | – | binds |
